Measurements as given in the supplement of paper PMC12542422.
Where a name gives a salt, the structure may show the parent alone. ± gives the standard deviation of the averaged measurements. The list shows a part of the results. These are raw signals, not scaled to a control.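 Across three biological replicates, HeLa cells were imaged for ribosome assembly using ENP1 staining (export block present or absent) or inducible tagged ribosomal protein reporters. Machine learning classified each cell's signal localization relative to DMSO controls. Hits exceeded the DMSO false-positive mean by five standard deviations and were then visually confirmed.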

These compounds were tested on HeLa K (ENP1 immunofluorescence, +LMB) (assay: fraction of cells with nucleolar or nucleolar/nucleoplasmic ENP1 signal (MainHitrate); higher = more cells with nucleolar/nuclear readout signal (for ENP1 -LMB: less RNAPI inhibition; for +LMB ENP1 and RP reporters: stronger nuclear/nucleolar retention, i.e. ribosome biogenesis defect)). Conditions: concentration: 1 µM; treatment time: 6 h; ENP1 +LMB; leptomycin B: 20 nM, last 1.5 h.

SMILES	fraction
CC1(C)O[C@@H]2C[C@H]3[C@@H]4CCC5=CC(=O)C=C[C@]5(C)[C@H]4[C@@H](O)C[C@]3(C)[C@]2(C(=O)CO)O1 [Desonide]	0.0619 ± 0.045
Cc1ncc(C[n+]2csc(CCO)c2C)c(N)n1 [Thiamine HCl (Vitamin B1)]	0.116 ± 0.17
CCCOc1ccc(C(=O)OCCN(CC)CC)cc1N [Proparacaine HCl]	0.128 ± 0.17
NC[C@@H]1O[C@H](O[C@H]2[C@@H](O)[C@H](O[C@@H]3[C@@H](O)[C@H](N)C[C@H](N)[C@H]3O[C@H]3O[C@H](CO)[C@@H](O)[C@H](O)[C@H]3N)O[C@@H]2CO)[C@H](N)[C@@H](O)[C@@H]1O [Paromomycin Sulfate]	0.0948 ± 0.12
C[C@@H]1C(=O)O[C@H]2C[C@@]34[C@H]5C[C@@H](C(C)(C)C)[C@]36[C@@H](OC(=O)[C@@H]6O)O[C@@]4(C(=O)O5)[C@]21O [Ginkgolide A]	0.112 ± 0.15
CC(C)C(=O)Oc1ccc(CO)cc1[C@H](CCN(C(C)C)C(C)C)c1ccccc1 [Fesoterodine fumarate (Toviaz)]	0.16 ± 0.23
CC(COc1ccccc1)N(CCCl)Cc1ccccc1 (configuration not stated) [Phenoxybenzamine HCl]	0.0959 ± 0.098
CCc1c2c(nc3ccc(OC(=O)N4CCC(N5CCCCC5)CC4)cc13)-c1cc3c(c(=O)n1C2)COC(=O)[C@]3(O)CC [Irinotecan HCl Trihydrate (Campto)]	0.206 ± 0.33
Cc1ccc(NC(=O)c2ccc(CN3CCN(C)CC3)cc2)cc1Nc1nccc(-c2cccnc2)n1 [Imatinib (Gleevec)]	0.0816 ± 0.11
O=C(O)c1cn(-c2ccc(F)cc2)c2cc(N3CCNCC3)c(F)cc2c1=O [Sarafloxacin HCl]	0.0881 ± 0.12
CN1CCc2cccc3c2[C@H]1Cc1ccc(O)c(O)c1-3 [R-(-)-Apomorphine HCl Hemihydrate]	0.167 ± 0.24
CC[C@H]1OC(=O)C[C@@H](O)[C@H](C)[C@@H](O[C@@H]2O[C@H](C)[C@@H](O)[C@H](N(C)C)[C@H]2O)[C@@H](CCN2C[C@H](C)C[C@H](C)C2)C[C@@H](C)C(=O)/C=C/C(C)=C/[C@@H]1CO[C@@H]1O[C@H](C)[C@@H](O)[C@@H](OC)[C@H]1OC [Tilmicosin]	0.0842 ± 0.11
NC12CC3CC(CC(C3)C1)C2 [Amantadine hydrochloride (Symmetrel)]	0.139 ± 0.22
Cc1cn(-c2cc(NC(=O)c3ccc(C)c(Nc4nccc(-c5cccnc5)n4)c3)cc(C(F)(F)F)c2)cn1 [Nilotinib (AMN-107)]	0.092 ± 0.075
CC1=C(/C=C/C(C)=C/C=C/C(C)=C\C(=O)O)C(C)(C)CCC1 [Isotretinoin]	0.0964 ± 0.1
CC[C@H]1OC(=O)C[C@@H](O)[C@H](C)[C@@H](O[C@@H]2O[C@H](C)[C@@H](O[C@H]3C[C@@](C)(O)[C@@H](O)[C@H](C)O3)[C@H](N(C)C)[C@H]2O)[C@@H](CC=O)C[C@@H](C)C(=O)/C=C/C(C)=C/[C@@H]1CO[C@@H]1O[C@H](C)[C@@H](O)[C@@H](OC)[C@H]1OC [Tylosin tartrate]	0.148 ± 0.23
CN1CCOC(c2ccccc2)c2ccccc2C1 (configuration not stated) [Nefopam HCl]	0.0478 ± 0.045
CCCCNC(=O)NS(=O)(=O)c1ccc(C)cc1 [Tolbutamide]	0.149 ± 0.21
NS(=O)(=O)c1cc2c(cc1Cl)N=CNS2(=O)=O [Chlorothiazide]	0.101 ± 0.11
CN(Cc1cnc2nc(N)nc(N)c2n1)c1ccc(C(=O)N[C@@H](CCC(=O)O)C(=O)O)cc1 [Abitrexate (Methotrexate)]	0.18 ± 0.25
CCOC(=O)[C@H](CCc1ccccc1)N[C@H]1CS[C@H](c2cccs2)CN(CC(=O)O)C1=O [Temocapril HCl]	0.0682 ± 0.085
O=C(Nc1ccc([N+](=O)[O-])cc1Cl)c1cc(Cl)ccc1O [Niclosamide (Niclocide)]	0.151 ± 0.24
CCCCCCCCCCCC[N+](C)(C)CCOc1ccccc1 [Domiphen Bromide]	0.0425 ± 0.059
O=c1[nH]c(=O)n([C@H]2C[C@H](O)[C@@H](CO)O2)cc1F [Floxuridine]	0.037 ± 0.017
CCN1CCN(c2cc(-c3ccc(F)cc3)c3c(n2)CCCCCC3)CC1 [Blonanserin (Lonasen)]	0.098 ± 0.13
O=C(Oc1ccccc1C(=O)O)c1ccccc1O [Sasapyrine]	0.0515 ± 0.063
Nc1nc(Cl)nc2c1ncn2[C@H]1C[C@H](O)[C@@H](CO)O1 [Cladribine]	0.0618 ± 0.051

Ordered by count of non-hydrogen atoms (rising): three of the compounds above
SMILES	fraction
O=C(Nc1ccc([N+](=O)[O-])cc1Cl)c1cc(Cl)ccc1O [Niclosamide (Niclocide)]	0.151 ± 0.24
CC1=C(/C=C/C(C)=C/C=C/C(C)=C\C(=O)O)C(C)(C)CCC1 [Isotretinoin]	0.0964 ± 0.1
CCc1c2c(nc3ccc(OC(=O)N4CCC(N5CCCCC5)CC4)cc13)-c1cc3c(c(=O)n1C2)COC(=O)[C@]3(O)CC [Irinotecan HCl Trihydrate (Campto)]	0.206 ± 0.33
